Measurements reported in the supplement of paper PMC10849652.
The other results are listed elsewhere or left out.

Sequences of proteins named here, by UniProt entry; tags and fusion partners are left off. A change or cut given only in a name is not applied to a line headed by its entry.
UniProt Q9HA77: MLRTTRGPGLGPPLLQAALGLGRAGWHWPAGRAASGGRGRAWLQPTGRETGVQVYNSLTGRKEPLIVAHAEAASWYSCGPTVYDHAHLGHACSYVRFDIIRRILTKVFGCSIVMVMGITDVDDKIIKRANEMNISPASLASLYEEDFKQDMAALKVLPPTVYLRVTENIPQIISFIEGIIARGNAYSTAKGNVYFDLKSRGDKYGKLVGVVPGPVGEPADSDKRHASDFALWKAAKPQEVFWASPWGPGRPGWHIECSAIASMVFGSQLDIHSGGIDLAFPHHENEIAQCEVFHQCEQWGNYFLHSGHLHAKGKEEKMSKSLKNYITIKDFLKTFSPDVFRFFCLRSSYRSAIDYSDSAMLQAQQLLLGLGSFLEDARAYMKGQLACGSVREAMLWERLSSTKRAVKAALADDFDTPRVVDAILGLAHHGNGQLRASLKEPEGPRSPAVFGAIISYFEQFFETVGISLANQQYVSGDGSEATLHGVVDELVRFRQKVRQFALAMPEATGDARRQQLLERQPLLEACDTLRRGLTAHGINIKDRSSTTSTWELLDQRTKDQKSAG
UniProt Q96ER9: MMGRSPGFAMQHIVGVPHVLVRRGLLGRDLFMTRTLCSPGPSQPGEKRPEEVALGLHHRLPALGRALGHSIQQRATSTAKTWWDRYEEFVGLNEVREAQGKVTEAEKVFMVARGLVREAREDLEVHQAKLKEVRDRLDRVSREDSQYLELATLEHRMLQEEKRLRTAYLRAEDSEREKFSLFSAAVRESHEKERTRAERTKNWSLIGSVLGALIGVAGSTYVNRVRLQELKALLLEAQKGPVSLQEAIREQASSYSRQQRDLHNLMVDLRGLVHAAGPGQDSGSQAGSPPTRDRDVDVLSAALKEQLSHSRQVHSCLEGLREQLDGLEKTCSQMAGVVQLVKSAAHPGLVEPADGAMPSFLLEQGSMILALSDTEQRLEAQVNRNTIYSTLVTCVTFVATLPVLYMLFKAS
UniProt O95067, whole entry, looked up: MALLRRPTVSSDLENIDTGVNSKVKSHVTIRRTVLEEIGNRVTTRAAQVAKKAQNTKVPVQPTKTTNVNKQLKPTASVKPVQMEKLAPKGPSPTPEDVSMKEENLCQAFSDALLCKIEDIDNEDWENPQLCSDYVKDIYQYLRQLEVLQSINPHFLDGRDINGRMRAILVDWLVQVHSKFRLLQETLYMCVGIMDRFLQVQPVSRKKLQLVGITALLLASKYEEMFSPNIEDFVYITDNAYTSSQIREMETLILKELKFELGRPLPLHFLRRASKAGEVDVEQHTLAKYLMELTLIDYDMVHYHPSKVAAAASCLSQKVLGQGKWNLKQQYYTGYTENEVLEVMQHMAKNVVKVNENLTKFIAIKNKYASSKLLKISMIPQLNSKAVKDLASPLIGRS
UniProt Q7L3B6: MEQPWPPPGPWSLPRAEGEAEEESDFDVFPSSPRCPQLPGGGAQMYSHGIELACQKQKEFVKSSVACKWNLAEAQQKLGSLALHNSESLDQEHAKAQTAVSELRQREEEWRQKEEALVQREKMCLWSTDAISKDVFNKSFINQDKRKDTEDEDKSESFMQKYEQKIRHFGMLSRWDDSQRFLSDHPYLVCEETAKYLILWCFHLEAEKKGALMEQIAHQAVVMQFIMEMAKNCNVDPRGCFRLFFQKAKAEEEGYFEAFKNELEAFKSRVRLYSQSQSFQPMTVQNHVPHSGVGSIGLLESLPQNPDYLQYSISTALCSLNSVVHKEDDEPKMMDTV
UniProt O75909: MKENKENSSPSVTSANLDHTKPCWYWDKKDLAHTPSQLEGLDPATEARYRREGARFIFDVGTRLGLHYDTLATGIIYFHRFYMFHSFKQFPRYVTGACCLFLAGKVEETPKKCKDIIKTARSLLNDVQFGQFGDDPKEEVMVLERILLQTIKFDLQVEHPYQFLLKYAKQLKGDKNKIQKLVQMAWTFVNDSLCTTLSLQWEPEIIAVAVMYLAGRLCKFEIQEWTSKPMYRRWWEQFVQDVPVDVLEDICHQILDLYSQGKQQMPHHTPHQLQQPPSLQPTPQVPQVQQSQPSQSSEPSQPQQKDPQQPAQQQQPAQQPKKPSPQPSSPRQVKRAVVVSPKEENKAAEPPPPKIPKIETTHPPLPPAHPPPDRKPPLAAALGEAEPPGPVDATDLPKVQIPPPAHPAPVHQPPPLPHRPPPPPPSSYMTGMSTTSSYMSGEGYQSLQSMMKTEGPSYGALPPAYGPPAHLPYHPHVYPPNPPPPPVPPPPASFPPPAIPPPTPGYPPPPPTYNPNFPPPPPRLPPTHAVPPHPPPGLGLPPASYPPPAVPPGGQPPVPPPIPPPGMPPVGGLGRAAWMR
UniProt O60826, whole entry, looked up: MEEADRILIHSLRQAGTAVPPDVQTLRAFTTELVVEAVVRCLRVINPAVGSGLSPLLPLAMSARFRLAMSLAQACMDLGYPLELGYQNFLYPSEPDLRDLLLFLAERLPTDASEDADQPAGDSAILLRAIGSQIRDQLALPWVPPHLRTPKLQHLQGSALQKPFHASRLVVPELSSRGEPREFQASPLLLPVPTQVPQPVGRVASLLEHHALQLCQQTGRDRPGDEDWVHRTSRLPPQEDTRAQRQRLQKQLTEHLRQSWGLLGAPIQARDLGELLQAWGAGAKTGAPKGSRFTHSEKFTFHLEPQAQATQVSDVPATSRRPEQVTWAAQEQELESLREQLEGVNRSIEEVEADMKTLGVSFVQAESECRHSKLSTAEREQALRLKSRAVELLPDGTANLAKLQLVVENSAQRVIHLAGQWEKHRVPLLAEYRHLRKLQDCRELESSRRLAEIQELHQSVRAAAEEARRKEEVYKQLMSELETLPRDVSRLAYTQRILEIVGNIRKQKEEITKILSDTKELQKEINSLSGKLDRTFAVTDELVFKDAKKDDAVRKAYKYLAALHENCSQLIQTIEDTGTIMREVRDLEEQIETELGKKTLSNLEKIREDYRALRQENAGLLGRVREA
UniProt Q8IWD4: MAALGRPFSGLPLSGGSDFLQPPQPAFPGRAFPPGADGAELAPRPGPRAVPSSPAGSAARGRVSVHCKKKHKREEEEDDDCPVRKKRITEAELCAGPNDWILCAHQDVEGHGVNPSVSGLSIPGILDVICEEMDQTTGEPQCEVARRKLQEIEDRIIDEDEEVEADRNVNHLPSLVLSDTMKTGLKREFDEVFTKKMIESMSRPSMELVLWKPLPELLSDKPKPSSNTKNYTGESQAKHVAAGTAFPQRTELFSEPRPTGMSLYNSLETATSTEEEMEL
UniProt Q8ND76: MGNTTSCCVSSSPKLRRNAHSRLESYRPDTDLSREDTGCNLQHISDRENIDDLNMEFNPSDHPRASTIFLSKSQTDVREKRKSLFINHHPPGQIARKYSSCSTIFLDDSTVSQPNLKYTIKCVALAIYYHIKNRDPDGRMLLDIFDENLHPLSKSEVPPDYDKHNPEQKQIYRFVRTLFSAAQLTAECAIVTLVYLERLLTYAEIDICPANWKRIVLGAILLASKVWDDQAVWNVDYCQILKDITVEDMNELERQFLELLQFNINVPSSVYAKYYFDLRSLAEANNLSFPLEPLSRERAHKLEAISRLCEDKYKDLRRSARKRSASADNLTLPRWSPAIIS
UniProt Q13191, whole entry, looked up: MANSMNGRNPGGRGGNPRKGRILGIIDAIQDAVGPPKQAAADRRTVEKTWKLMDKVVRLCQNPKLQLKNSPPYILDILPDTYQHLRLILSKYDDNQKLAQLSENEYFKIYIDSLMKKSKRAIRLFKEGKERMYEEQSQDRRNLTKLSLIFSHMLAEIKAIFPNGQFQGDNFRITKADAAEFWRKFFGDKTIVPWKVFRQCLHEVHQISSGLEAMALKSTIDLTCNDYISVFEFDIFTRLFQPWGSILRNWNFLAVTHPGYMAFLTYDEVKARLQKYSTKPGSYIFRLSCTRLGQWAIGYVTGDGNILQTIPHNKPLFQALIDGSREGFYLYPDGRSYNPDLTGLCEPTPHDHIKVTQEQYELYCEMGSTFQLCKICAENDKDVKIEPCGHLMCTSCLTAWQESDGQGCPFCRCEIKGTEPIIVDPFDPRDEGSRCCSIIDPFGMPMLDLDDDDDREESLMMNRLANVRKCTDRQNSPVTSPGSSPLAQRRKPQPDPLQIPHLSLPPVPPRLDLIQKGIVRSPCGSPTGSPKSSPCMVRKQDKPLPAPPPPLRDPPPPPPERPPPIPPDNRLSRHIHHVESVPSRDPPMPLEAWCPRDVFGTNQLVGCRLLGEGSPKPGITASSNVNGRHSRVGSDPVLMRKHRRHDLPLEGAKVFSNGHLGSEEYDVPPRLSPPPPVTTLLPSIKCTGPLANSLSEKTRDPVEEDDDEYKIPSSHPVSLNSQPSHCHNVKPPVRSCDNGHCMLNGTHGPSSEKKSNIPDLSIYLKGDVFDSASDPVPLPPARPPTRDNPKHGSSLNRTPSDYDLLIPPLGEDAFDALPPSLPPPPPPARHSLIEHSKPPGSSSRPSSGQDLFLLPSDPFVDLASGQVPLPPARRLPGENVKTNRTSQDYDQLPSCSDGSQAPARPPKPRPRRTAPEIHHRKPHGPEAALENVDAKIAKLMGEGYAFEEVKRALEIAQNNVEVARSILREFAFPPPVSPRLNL
UniProt P83916, whole entry, looked up: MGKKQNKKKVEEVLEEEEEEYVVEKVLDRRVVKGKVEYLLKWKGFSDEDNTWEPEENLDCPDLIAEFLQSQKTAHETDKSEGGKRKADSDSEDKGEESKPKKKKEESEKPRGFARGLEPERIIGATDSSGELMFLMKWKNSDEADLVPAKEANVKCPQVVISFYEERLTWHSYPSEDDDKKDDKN
UniProt Q13951, whole entry, looked up: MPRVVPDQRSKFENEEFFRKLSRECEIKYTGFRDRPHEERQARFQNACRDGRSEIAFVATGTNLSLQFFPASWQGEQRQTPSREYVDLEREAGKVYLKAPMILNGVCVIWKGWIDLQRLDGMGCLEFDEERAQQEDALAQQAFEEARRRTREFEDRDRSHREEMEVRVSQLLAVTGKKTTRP
UniProt O60508: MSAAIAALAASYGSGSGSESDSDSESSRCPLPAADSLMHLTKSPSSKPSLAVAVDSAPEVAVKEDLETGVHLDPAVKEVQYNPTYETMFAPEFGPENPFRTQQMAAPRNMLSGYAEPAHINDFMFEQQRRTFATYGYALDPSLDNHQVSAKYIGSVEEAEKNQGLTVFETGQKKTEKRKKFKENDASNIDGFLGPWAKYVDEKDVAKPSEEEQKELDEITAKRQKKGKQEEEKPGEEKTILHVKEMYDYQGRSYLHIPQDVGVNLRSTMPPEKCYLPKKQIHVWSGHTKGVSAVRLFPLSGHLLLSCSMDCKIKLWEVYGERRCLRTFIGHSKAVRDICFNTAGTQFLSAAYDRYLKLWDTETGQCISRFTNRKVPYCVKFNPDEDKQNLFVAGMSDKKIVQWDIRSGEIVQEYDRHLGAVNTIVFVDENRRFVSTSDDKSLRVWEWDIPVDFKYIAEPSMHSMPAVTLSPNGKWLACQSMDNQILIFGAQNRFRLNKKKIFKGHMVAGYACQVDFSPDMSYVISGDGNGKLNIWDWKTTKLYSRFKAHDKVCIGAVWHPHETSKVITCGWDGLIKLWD
UniProt P15529: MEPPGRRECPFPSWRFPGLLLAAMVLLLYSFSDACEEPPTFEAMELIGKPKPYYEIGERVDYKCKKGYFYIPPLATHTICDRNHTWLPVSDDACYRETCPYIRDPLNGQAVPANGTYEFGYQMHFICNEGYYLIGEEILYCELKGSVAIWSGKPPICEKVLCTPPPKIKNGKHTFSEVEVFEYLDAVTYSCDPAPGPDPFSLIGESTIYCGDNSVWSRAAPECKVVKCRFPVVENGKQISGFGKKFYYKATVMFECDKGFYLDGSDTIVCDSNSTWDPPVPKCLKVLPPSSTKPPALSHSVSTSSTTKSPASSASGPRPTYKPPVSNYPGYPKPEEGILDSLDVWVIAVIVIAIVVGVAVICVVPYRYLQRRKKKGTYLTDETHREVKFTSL
UniProt P20810: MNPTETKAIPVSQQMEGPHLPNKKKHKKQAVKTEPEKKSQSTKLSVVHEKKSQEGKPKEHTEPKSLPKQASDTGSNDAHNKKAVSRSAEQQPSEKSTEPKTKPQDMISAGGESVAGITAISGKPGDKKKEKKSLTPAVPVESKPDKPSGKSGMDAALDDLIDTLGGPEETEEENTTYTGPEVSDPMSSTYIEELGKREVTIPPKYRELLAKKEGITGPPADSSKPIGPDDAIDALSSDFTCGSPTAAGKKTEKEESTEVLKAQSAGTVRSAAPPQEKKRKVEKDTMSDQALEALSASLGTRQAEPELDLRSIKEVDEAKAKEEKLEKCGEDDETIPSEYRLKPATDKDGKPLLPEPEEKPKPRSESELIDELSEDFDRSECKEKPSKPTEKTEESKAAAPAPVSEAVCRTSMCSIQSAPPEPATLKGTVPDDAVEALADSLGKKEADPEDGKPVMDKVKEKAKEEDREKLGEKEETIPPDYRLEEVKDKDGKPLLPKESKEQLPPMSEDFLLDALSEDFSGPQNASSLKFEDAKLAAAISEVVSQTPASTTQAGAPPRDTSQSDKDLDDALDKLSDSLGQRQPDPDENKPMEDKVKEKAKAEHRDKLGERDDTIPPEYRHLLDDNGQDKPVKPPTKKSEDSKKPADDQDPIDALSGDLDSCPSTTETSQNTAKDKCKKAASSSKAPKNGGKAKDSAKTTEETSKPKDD

Legend:
Assay in all cases: log2 fold change, soluble protein after heating vs DMSO (PISA); higher = thermal stabilisation; K562 cells, 10 uM, 30 min; active = over 0.2 and 3.5 SD of the protein, either way, in both replicates (recomputed)
erlotinib = compound: C#Cc1cccc(Nc2ncnc3cc(OCCOC)c(OCCOC)cc23)c1 [erlotinib]
How it was run: (§1)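 K562 cells at 2×10^6 cells/mL were treated for 30 min with 10 μM compound, and aliquots were heated for 3 min over 48°C-58°C before pooling. Extraction used PBS with 0.5% NP-40 at 4°C, and soluble protein was the supernatant after 21,000xg for 90 min, measured by TMTpro 16plex LC-MS/MS with channel sums equalised. Thermal stability values, relative to control samples and from duplicates, are log2 fold changes.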

[1] = compound: C/C(=N\NC(=O)C1=CC(=CC=C1)S(=O)(=O)N2CCOCC2)/C3=C(C=CC(=C3)Cl)O
How it was run: as §1

[2] = compound: C1=CC(=C(C=C1Cl)C2=NC3=NC=CN=C3C(=N2)NC4=CC=NC=C4)F
How it was run: as §1

[3] = compound: C1=CC(=CC=C1C2=NC3=C(N2)C=C(C=C3)C(=O)N)OC4=CC=C(C=C4)Cl
How it was run: as §1

[4] = compound: C1=CC2=C(C=CC(=C2)/C=C\3/C(=O)NC(=NCC4=CC=CS4)S3)N=C1
How it was run: as §1

[5] = compound: C1=CC2=NC=CN=C2C=C1/C=C/3\C(=O)NC(=O)S3
How it was run: as §1

[6] = compound: C1=CC=C(C=C1)C2=NC(=C(N2)C3=CC=NC=C3)C4=CC(=C(C=C4)Cl)O
How it was run: as §1

[7] = compound: C1=CC=C2C(=C1)C3=NNC4=CC=CC(=C43)C2=O
How it was run: as §1

[8] = compound: C1CCN(C1)C(=O)NC2=CC=CC(=C2)NC3=NC=C(C(=N3)NCCC4=CN=CN4)Br
How it was run: as §1

[9] = compound: C1CN(CCC1(CC2=CC=C(C=C2)Cl)N)C3=NC=NC4=C3C=CN4
How it was run: as §1

Measured: log2 fold change

CCDC124 (UniProt Q96CT7)
inactive: erlotinib -0.024 | [1] -0.021 | [2] -0.158 | [3] 0 | [4] 0.003 | [5] 0.008 | [6] -0.035 | [7] -0.004 | [8] 0.026 | [9] -0.047

CARS2 (UniProt Q9HA77)
inactive: erlotinib 0.041 | [1] 0.027 | [2] 0.03 | [3] -0.01 | [4] 0.019 | [5] 0.108 | [6] -0.028 | [7] -0.003 | [8] -0.045 | [9] 0.093

CDC37 (UniProt Q16543)
inactive: erlotinib 0.01 | [1] -0.057 | [2] 0.083 | [3] -0.013 | [4] -0.03 | [5] 0.031 | [6] 0.004 | [7] 0.093 | [8] -0.005 | [9] -0.003

CCDC28A (UniProt Q8IWP9)
inactive: erlotinib -0.071 | [1] 0.084 | [2] -0.22 | [3] -0.013 | [4] -0.013 | [5] 0.049 | [6] -0.004 | [7] 0.014 | [8] -0.047 | [9] -0.103

CCDC51 (UniProt Q96ER9)
inactive: erlotinib 0 | [1] -0.009 | [2] 0.151 | [3] -0.047 | [4] 0.033 | [5] -0.009 | [6] 0.024 | [7] 0.033 | [8] 0 | [9] 0.057

CCNB2 (UniProt O95067)
inactive: erlotinib 0.038 | [1] 0.005 | [2] 0.015 | [3] 0.079 | [4] 0.036 | [5] 0.032 | [6] -0.039 | [7] 0.04 | [8] 0 | [9] -0.016

CCDC6 (UniProt Q16204)
inactive: erlotinib 0.017 | [1] -0.014 | [2] 0.02 | [3] -0.037 | [4] 0.03 | [5] 0.004 | [6] -0.073 | [7] -0.012 | [8] 0 | [9] 0.011

CARS isoform 3 (UniProt P49589)
inactive: erlotinib 0.023 | [1] 0.002 | [2] 0.019 | [3] 0 | [4] -0.011 | [5] 0.006 | [6] -0.006 | [7] -0.019 | [8] 0.014 | [9] 0.014

CDC37L1 (UniProt Q7L3B6)
inactive: erlotinib -0.069 | [1] 0.008 | [2] -0.007 | [3] -0.035 | [4] 0.054 | [5] 0.068 | [6] 0 | [7] -0.012 | [8] 0.203 | [9] 0.357

CCNK isoform 4 (UniProt O75909)
inactive: erlotinib 0.079 | [1] 0.006 | [2] -0.138 | [3] -0.016 | [4] -0.126 | [5] -0.013 | [6] -0.068 | [7] -0.077 | [8] 0.047 | [9] -0.126

CCDC22 (UniProt O60826)
inactive: erlotinib 0.029 | [1] 0.03 | [2] -0.076 | [3] -0.018 | [4] 0.032 | [5] 0.027 | [6] -0.025 | [7] -0.047 | [8] -0.015 | [9] -0.033

CCDC117 (UniProt Q8IWD4)
inactive: erlotinib -0.076 | [1] -0.049 | [2] -0.016 | [3] -0.022 | [4] 0.017 | [5] 0.005 | [6] -0.068 | [7] -0.03 | [8] 0.037 | [9] -0.037

CCNY (UniProt Q8ND76)
inactive: erlotinib -0.046 | [1] 0.043 | [2] -0.163 | [3] 0.021 | [4] 0.037 | [5] 0.005 | [6] 0.129 | [7] -0.065 | [8] -0.059 | [9] 0.013

CBR4 (UniProt Q8N4T8)
inactive: erlotinib 0.012 | [1] 0.01 | [2] -0.001 | [3] 0.033 | [4] 0 | [5] -0.028 | [6] 0.041 | [7] 0.008 | [8] -0.02 | [9] 0.061

8 consecutive records out of the list so far, for reference:
CCNB2 (UniProt O95067)
inactive: erlotinib 0.038 | [1] 0.005 | [2] 0.015 | [3] 0.079 | [4] 0.036 | [5] 0.032 | [6] -0.039 | [7] 0.04 | [8] 0 | [9] -0.016

CCDC6 (UniProt Q16204)
inactive: erlotinib 0.017 | [1] -0.014 | [2] 0.02 | [3] -0.037 | [4] 0.03 | [5] 0.004 | [6] -0.073 | [7] -0.012 | [8] 0 | [9] 0.011

CARS isoform 3 (UniProt P49589)
inactive: erlotinib 0.023 | [1] 0.002 | [2] 0.019 | [3] 0 | [4] -0.011 | [5] 0.006 | [6] -0.006 | [7] -0.019 | [8] 0.014 | [9] 0.014

CDC37L1 (UniProt Q7L3B6)
inactive: erlotinib -0.069 | [1] 0.008 | [2] -0.007 | [3] -0.035 | [4] 0.054 | [5] 0.068 | [6] 0 | [7] -0.012 | [8] 0.203 | [9] 0.357

CCNK isoform 4 (UniProt O75909)
inactive: erlotinib 0.079 | [1] 0.006 | [2] -0.138 | [3] -0.016 | [4] -0.126 | [5] -0.013 | [6] -0.068 | [7] -0.077 | [8] 0.047 | [9] -0.126

CCDC22 (UniProt O60826)
inactive: erlotinib 0.029 | [1] 0.03 | [2] -0.076 | [3] -0.018 | [4] 0.032 | [5] 0.027 | [6] -0.025 | [7] -0.047 | [8] -0.015 | [9] -0.033

CCDC117 (UniProt Q8IWD4)
inactive: erlotinib -0.076 | [1] -0.049 | [2] -0.016 | [3] -0.022 | [4] 0.017 | [5] 0.005 | [6] -0.068 | [7] -0.03 | [8] 0.037 | [9] -0.037

CCNY (UniProt Q8ND76)
inactive: erlotinib -0.046 | [1] 0.043 | [2] -0.163 | [3] 0.021 | [4] 0.037 | [5] 0.005 | [6] 0.129 | [7] -0.065 | [8] -0.059 | [9] 0.013

Further records follow:

CDC20 (UniProt Q12834)
inactive: erlotinib 0.017 | [1] 0.144 | [2] -0.058 | [3] -0.008 | [4] -0.041 | [5] 0.077 | [6] -0.023 | [7] -0.089 | [8] -0.099 | [9] -0.06

CCDC9 (UniProt Q9Y3X0)
inactive: erlotinib 0.017 | [1] -0.116 | [2] -0.036 | [3] 0.047 | [4] -0.045 | [5] 0.034 | [6] 0.027 | [7] -0.02 | [8] 0.062 | [9] 0.034

CCDC43 (UniProt Q96MW1)
inactive: erlotinib 0.036 | [1] 0.002 | [2] 0.025 | [3] 0.024 | [4] -0.033 | [5] 0.061 | [6] -0.002 | [7] -0.012 | [8] 0.003 | [9] 0.027

CBLB (UniProt Q13191)
inactive: erlotinib -0.018 | [1] 0.015 | [2] 0.017 | [3] 0.021 | [4] -0.055 | [5] 0.034 | [6] -0.059 | [7] 0.094 | [8] -0.065 | [9] -0.009

CDC16 (UniProt Q13042)
inactive: erlotinib -0.098 | [1] 0.059 | [2] -0.006 | [3] 0.023 | [4] -0.014 | [5] 0.033 | [6] 0 | [7] -0.022 | [8] 0.013 | [9] -0.023

CCT7 (UniProt Q99832)
inactive: erlotinib -0.01 | [1] -0.012 | [2] 0.078 | [3] 0.004 | [4] -0.015 | [5] -0.009 | [6] 0.023 | [7] 0.015 | [8] 0.004 | [9] 0.012

CBX1 (UniProt P83916)
inactive: erlotinib 0.025 | [1] -0.044 | [2] 0.022 | [3] 0.072 | [4] 0.004 | [5] 0.089 | [6] -0.055 | [7] -0.026 | [8] -0.007 | [9] -0.027

CBFB (UniProt Q13951)
inactive: erlotinib 0.091 | [1] 0.064 | [3] -0.086 | [4] 0.092 | [5] 0.013 | [6] -0.131 | [7] -0.013 | [8] 0.002 | [9] -0.043

CCNYL1 (UniProt Q8N7R7)
inactive: erlotinib 0.055 | [1] -0.138 | [2] -0.037 | [3] 0.036 | [4] 0.142 | [5] -0.04 | [7] -0.018

CDC40 (UniProt O60508)
inactive: erlotinib -0.166 | [1] -0.307 | [2] -0.44 | [3] -0.001 | [4] -0.139 | [5] -0.02 | [7] -0.037 | [8] -0.009 | [9] 0.167

CD46 isoform 2 (UniProt P15529)
inactive: erlotinib 0.034 | [1] 0 | [2] -0.018 | [3] -0.007 | [4] -0.072 | [5] -0.002 | [6] 0.023 | [7] -0.011 | [8] -0.036 | [9] 0.056

CCDC85B (UniProt Q15834)
inactive: erlotinib -0.038 | [1] -0.002 | [3] -0.104 | [4] -0.11 | [5] 0.015 | [7] -0.013 | [8] 0.013 | [9] -0.257

CD151 (UniProt P48509)
inactive: erlotinib -0.035 | [1] 0.029 | [2] 0.045 | [3] 0.103 | [4] -0.021 | [5] 0.069 | [6] 0.021 | [7] -0.125 | [8] -0.021 | [9] 0.113

CAST isoform 6 (UniProt P20810)
inactive: erlotinib -0.028 | [1] -0.014 | [2] 0.036 | [3] 0 | [4] -0.006 | [5] 0.022 | [6] -0.039 | [7] -0.017 | [8] 0.026 | [9] 0.027

CCT6A (UniProt P40227)
inactive: erlotinib -0.02 | [1] 0 | [2] 0.043 | [3] -0.003 | [4] -0.01 | [5] -0.027 | [6] -0.006 | [7] 0.007 | [8] -0.018 | [9] 0.009
